# Test results: PMC9041834
# Chains of the proteins cited; added tags and fusions are not shown.
# UniProt Q17551: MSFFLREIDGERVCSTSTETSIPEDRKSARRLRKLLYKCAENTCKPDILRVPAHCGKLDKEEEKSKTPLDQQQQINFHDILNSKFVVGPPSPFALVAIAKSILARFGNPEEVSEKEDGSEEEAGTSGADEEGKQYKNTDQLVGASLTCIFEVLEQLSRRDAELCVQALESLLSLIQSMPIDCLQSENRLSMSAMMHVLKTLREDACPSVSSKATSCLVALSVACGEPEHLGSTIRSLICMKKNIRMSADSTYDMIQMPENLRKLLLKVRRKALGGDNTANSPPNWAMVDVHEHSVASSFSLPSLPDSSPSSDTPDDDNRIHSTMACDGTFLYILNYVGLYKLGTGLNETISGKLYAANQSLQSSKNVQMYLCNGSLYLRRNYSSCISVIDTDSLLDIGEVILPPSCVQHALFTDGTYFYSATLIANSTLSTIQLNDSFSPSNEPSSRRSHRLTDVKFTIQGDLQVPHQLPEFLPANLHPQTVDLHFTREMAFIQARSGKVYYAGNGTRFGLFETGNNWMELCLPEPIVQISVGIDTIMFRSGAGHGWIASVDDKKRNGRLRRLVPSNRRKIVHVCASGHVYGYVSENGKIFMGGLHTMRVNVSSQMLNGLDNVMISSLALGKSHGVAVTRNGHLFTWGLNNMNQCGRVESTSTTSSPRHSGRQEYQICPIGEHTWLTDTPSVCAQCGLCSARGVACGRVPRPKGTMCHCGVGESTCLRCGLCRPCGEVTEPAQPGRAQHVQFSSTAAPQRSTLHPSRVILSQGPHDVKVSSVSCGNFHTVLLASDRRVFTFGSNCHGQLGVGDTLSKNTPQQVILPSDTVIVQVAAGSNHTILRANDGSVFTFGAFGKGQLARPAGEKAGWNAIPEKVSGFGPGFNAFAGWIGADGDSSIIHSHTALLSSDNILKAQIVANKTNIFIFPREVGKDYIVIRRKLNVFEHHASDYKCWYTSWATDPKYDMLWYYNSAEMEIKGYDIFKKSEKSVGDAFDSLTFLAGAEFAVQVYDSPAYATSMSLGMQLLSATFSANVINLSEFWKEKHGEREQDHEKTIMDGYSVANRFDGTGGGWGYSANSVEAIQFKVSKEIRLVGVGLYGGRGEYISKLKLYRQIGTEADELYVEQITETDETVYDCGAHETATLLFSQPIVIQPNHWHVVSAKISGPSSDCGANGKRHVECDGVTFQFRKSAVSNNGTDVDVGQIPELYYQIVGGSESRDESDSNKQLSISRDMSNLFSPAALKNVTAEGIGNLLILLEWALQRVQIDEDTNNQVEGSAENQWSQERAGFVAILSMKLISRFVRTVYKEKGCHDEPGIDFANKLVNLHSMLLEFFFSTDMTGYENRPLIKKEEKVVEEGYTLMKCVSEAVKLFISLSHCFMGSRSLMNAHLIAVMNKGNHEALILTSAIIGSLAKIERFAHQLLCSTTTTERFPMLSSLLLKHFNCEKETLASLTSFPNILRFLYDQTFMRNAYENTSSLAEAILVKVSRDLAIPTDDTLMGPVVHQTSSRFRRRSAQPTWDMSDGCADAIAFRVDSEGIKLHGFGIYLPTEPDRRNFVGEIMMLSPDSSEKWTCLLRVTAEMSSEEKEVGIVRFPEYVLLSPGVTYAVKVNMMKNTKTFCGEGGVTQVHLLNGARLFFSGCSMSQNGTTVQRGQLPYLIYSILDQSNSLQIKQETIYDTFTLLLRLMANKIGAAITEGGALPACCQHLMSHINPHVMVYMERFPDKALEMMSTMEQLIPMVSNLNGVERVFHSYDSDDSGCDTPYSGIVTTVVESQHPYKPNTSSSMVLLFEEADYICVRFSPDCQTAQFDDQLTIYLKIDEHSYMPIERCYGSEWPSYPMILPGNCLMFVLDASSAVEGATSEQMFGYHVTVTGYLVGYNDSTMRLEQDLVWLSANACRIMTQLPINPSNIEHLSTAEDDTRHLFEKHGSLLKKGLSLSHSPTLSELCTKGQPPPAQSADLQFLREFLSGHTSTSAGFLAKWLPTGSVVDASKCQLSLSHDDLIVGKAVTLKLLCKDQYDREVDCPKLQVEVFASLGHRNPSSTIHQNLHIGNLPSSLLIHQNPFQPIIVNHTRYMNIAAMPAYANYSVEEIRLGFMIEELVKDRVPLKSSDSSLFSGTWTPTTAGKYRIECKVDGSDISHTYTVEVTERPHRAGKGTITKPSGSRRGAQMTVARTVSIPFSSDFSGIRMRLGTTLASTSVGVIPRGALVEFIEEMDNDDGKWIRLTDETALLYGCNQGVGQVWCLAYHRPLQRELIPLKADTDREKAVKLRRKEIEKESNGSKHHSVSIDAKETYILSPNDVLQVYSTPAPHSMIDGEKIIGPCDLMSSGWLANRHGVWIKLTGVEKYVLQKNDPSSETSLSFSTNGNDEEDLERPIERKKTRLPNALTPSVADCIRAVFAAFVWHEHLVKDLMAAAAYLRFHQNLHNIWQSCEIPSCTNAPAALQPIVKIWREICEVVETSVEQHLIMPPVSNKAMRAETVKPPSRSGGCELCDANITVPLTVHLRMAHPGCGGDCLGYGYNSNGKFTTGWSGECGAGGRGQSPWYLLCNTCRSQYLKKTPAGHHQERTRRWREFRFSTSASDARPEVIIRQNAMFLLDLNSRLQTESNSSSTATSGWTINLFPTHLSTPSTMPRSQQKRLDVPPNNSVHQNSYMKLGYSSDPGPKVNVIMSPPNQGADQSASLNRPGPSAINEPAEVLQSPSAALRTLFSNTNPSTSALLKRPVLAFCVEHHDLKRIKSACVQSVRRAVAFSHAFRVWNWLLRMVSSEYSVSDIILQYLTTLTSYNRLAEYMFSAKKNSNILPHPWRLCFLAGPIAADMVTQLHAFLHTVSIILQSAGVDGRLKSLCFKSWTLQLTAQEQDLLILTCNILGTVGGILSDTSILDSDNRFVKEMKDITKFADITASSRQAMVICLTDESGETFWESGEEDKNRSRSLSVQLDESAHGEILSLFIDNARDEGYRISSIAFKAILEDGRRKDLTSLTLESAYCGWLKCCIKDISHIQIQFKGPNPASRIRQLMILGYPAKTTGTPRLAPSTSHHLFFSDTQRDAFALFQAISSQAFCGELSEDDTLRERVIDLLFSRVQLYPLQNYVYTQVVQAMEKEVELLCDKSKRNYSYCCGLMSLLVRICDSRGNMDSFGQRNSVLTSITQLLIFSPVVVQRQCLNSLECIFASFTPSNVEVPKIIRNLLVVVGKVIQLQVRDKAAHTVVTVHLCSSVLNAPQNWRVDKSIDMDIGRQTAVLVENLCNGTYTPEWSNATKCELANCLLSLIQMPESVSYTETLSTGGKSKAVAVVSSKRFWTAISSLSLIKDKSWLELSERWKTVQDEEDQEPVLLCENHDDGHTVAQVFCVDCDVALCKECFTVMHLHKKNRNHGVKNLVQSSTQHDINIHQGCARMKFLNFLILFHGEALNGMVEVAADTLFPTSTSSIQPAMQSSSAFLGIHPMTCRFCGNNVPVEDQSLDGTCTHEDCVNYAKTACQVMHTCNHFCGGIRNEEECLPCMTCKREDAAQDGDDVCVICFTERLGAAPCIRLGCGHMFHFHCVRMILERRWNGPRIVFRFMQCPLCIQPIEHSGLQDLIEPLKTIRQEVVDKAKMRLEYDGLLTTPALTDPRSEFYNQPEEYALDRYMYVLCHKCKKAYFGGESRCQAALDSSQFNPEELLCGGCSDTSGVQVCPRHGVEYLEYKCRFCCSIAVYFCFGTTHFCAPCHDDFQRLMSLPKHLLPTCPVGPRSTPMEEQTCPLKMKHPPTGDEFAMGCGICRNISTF
# UniProt G5ECU1: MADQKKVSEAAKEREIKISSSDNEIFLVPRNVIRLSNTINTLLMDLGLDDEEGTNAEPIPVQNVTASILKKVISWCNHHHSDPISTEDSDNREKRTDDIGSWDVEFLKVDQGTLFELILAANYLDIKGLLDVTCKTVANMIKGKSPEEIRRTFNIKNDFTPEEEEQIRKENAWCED
# UniProt G5ECH7: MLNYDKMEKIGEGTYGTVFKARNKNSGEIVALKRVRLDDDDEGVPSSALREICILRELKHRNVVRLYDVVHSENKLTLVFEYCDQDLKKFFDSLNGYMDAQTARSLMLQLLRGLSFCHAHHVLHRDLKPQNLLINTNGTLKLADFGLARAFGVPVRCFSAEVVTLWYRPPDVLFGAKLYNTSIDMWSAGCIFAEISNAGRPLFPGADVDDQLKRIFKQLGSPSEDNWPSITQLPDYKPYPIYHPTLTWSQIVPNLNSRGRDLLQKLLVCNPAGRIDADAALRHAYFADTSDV
# These are yes or no findings as the source states them, for the method shown. Binding seen in cells or lysates may run through a third protein. These calls come from enrichment with a bait or labelling near it, and not all partners need be listed. For part of these data: A no says only that the protein was not detected with the bait.
# How the values were obtained:
# [1] = target: GS::RPM-1 LD (RPM-1 ubiquitin ligase dead substrate trap fused to the GS affinity tag) (C. elegans) (UniProt Q17551); assay: affinity purification with mass spectrometry; GS-tagged baits (GS::RPM-1, GS::RPM-1 LD, GS::GFP) from transgenic mixed-stage C. elegans; cryomilled, lysed under varying detergent conditions; whole animal lysate (80 mg total protein) on IgG coupled Dynabeads, 4 h, 4°C; LC-MS/MS; 7 independent experiments
# [2] = target: GS::RPM-1 (wild-type RPM-1 fused to a protein G::Streptavidin binding peptide (GS) affinity tag) (C. elegans) (UniProt Q17551); assay: as above
binding [1],binding [2],Substance
binds,binds,SKR-1(SKP1) (from UniProt G5ECU1 1-176)
,no binding,CDK-5 (from UniProt G5ECH7 1-292) (enzyme)
